{
  "source": "patent US6001835A",
  "about": "“Inhibitors of farnesyl-protein transferase” (Merck & Co., Inc., priority 1997, dated 1999)",
  "target": "T1, human FPTase (Homo sapiens, UniProt P49354+P49356)",
  "T1 construct": "made in house",
  "assay": "In vitro inhibition of ras farnesyl transferase (human FPTase assay)",
  "assay_type": "biochemical",
  "details": "[3H]-FPP, 100 nM Ras-CVIM, 30 min, read-out: IC50, inhibitory activity against human FPTase",
  "note": "pIC50: −log10 of the molar value. Counter-ions that a name gives are not always drawn. Some results were stated once for a whole list of compounds, not compound by compound.",
  "data": [
    {"smiles": "N#Cc1ccc(Cn2cncc2CCNC(=O)C2CCCN(c3ccccc3)C2=O)cc1", "note": "(stereo not shown) [Example 1, N-[2-{1-(4-Cyanobenzyl)-5-imidazolyl}ethyl]-3-carbamoyl-1-phenyl-2-piperidinone hydrochloride]", "values": [
      {"measurement": "pIC50", "result": "≥ 4.30"}
    ]}
  ]
}
